Here are results for 24 molecules from PubChem BioAssay AID248 (DTP/NCI, 2004).

The list does not hold the whole screen: it gathers tests that were run many times, whatever their T/C, doses with no T/C, and many T/C values between a quarter and a half above the control. Other doses and runs of a compound stand elsewhere. T/C is the treated group as % of the vehicle group. Some entries give survivors of the animals treated and no T/C: the source files T/C as zero there, which appears to mark a toxic dose or a test without result, not a measured value. Some doses without a T/C left all or most animals alive at the check, yet need not have been tolerated: the source hardly ever lists a survival T/C far under the control, and the zero likely stands for such cases as well. Survivors were counted at the toxicity check, usually on the fifth day, unless a day is given; later deaths do not show. Schedule codes are those of the source, taken here to give the interval after Q, in days (D) or hours (H), and the number of doses after X. Some doses were run more than once; the values are given in rising order. Some schedules carry Z or #; the key to these is not given. Where survival is the endpoint, the PubChem record calls one and a half times the control and up active, and a quarter to a half above the control has no call in these data; cut-offs in other NCI protocols can differ. Some T/C values are followed by the survivors on the day toxicity was checked, most often the fifth; without a count, all were alive then.

The assay concerns L1210 leukemia ip in BDF1 mice, survival T/C. In words: NCI In Vivo Anticancer Drug Screen. Data for tumor model L1210 Leukemia (intraperitoneal) in B6D2F1 (BDF1) mice. Conditions: T/C endpoint: mean survival time, higher T/C = longer survival.
Where [1] appears, read: dose: 400.0 mg/kg/injection, schedule: Q01DX001 (ip), vehicle: saline.
The mark [2] stands for this setting: dose: 100.0 mg/kg/injection, schedule: Q04DX003 (ip), vehicle: saline.
The mark [3] stands for this setting: dose: 200.0 mg/kg/injection, schedule: Q04DX003 (ip), vehicle: saline.
Where [4] appears, read: dose: 400.0 mg/kg/injection, schedule: Q04DX003 (ip), vehicle: saline.
[5] abbreviates: dose: 200.0 mg/kg/injection, schedule: Q01DX009 (ip), vehicle: saline.
Setting [6] is: dose: 400.0 mg/kg/injection, schedule: Q01DX009 (ip), vehicle: saline.
Setting [7] is: dose: 400.0 mg/kg/injection, schedule: Q04DX003 (ip), vehicle: saline with Tween-80.
The mark [8] stands for this setting: dose: 400.0 mg/kg/injection, schedule: Q01DX009 (ip), vehicle: saline with Tween-80.

Turning to `O=S1OCCS1` (centres undefined), the survivor count is reported as 3 of 10 (dose: 4.7 mg/kg/injection, schedule: Q01DX Z (sc), vehicle: saline); 6 of 10 (dose: 7.8 mg/kg/injection, schedule: Q01DX Z (sc), vehicle: saline); 5 of 10 (dose: 21.6 mg/kg/injection, schedule: Q01DX Z (sc), vehicle: saline).

With `c1cc[nH]c1`, the survivor count is given as 2 of 6 (dose: 150.0 mg/kg/injection, schedule: Q01DX001 (ip), vehicle: saline) and 0 of 6 (dose: 300.0 mg/kg/injection, schedule: Q01DX001 (ip), vehicle: saline).

Consider `CSc1nccc2c1ncn2C1OC(CO)C(O)C1O` (centres undefined), for which the survivor count under setting [1] is reported as 0 of 4.

For the molecule `CCCCNC(C)(C)CO`, the survivor count runs as follows: under setting [2], 3 of 6; under setting [3], 1 of 6; under setting [4], 0 of 6.

Consider `NC(Cc1ccccc1)c1nn[nH]n1` (centres undefined), for which, under “dose: 125.0 mg/kg/injection, schedule: Q01DX Z (ip), vehicle: methylcellulose (MC)”, the survivor count was 1 of 6.

Consider `Cc1c(NC(=O)Nc2ccc(C3=NCCCN3)cc2)cccc1NC(=O)Nc1ccc(C2=NCCCN2)cc1`, for which the T/C runs as follows: (dose: 10.0 mg/kg/injection, schedule: Q01DX Z (ip), vehicle: water) 149 % of control; (dose: 12.5 mg/kg/injection, schedule: Q01DX Z (ip), vehicle: water) 142 % of control.

`O=C1c2ccccc2-c2ccc(N3C(=O)c4ccccc4C3=O)cc21`: the survivor count reads like this: (dose: 100.0 mg/kg/injection, schedule: Q01DX001 (ip), vehicle: saline with Tween-80) 6 of 6; (dose: 200.0 mg/kg/injection, schedule: Q01DX001 (ip), vehicle: saline with Tween-80) 6 of 6; (dose: 400.0 mg/kg/injection, schedule: Q01DX001 (ip), vehicle: saline with Tween-80) 6 of 6.

For the molecule `CCOC(=O)/C(C#N)=C(/C)C(C)C(=O)OCC` (centres undefined), the survivor count under setting [5] is listed as 1 of 6 and the survivor count under setting [6] was 0 of 6.

With `O=C(O)/C=C\C(=O)Nc1ccc2c(c1)Cc1cc(Cl)ccc1-2`, the survivor count under setting [7] is recorded as 3 of 6.

Take `O=C(Nc1cccc(C(F)(F)F)c1)Oc1ccccc1F`: the survivor count (dose: 400.0 mg/kg/injection, schedule: Q01DX009 (ip), vehicle: Klucel (hydroxypropylcellulose) (HPC)) is listed as 5 of 6.

On to `CC1CN=C(c2ccc(NC(=O)c3ccc(C(=O)Nc4ccc(C5=NCC(C)N5)cc4)cc3)cc2)N1` (centres undefined), for which the T/C was 137 % of control (dose: 0.5 mg/kg/injection, schedule: Q01DX Z (ip), vehicle: carboxymethylcellulose (CMC)); 143 % of control (dose: 1.2 mg/kg/injection, schedule: Q01DX Z (ip), vehicle: carboxymethylcellulose (CMC)); 126 % of control (dose: 2.0 mg/kg/injection, schedule: Q01DX Z (ip), vehicle: saline); 146 % of control (dose: 4.0 mg/kg/injection, schedule: Q01DX Z (ip), vehicle: saline); 135 % of control (dose: 30.0 mg/kg/injection, schedule: Q01DX Z (ip), vehicle: saline); 148 % of control (dose: 49.0 mg/kg/injection, schedule: Q01DX Z (ip), vehicle: carboxymethylcellulose (CMC)). Also, the T/C was 135 % of control (dose: 111.0 mg/kg/injection, schedule: Q01DX Z (ip), vehicle: carboxymethylcellulose (CMC)); 129 % of control (dose: 166.0 mg/kg/injection, schedule: Q01DX Z (ip), vehicle: carboxymethylcellulose (CMC)); 126 % of control (dose: 250.0 mg/kg/injection, schedule: Q01DX Z (ip), vehicle: carboxymethylcellulose (CMC)).

In the case of `COc1cccc(CC2=NCCc3cc(OC)c(OC)cc32)c1`, the survivor count is 0 of 6 under setting [5], 0 of 6 under setting [3] and 0 of 6 under setting [4].

With `N#CSCCN1C(=O)C2C3CCC(O3)C2C1=O` (centres undefined), the survivor count is on record as 1 of 3 (dose: 25.0 mg/kg/injection, schedule: Q04DX002 (ip), vehicle: saline with Tween-80); 0 of 3 (dose: 100.0 mg/kg/injection, schedule: Q04DX002 (ip), vehicle: saline with Tween-80); 0 of 3 (dose: 200.0 mg/kg/injection, schedule: Q04DX002 (ip), vehicle: saline with Tween-80); 0 of 3 (dose: 400.0 mg/kg/injection, schedule: Q04DX002 (ip), vehicle: saline with Tween-80).

Consider `O=C(/C=C/c1ccncc1)c1cccc2ccccc12`, for which the survivor count under setting [7] was 3 of 6.

With `BrCCC[P+](c1ccccc1)(c1ccccc1)c1ccccc1`, the survivor count is on record as 6 of 6 (dose: 25.0 mg/kg/injection, schedule: Q01DX009 (ip), vehicle: saline with Tween-80); 0 of 6 (dose: 50.0 mg/kg/injection, schedule: Q01DX009 (ip), vehicle: saline with Tween-80); 5 of 6 (dose: 100.0 mg/kg/injection, schedule: Q04DX003 (ip), vehicle: Klucel (hydroxypropylcellulose) (HPC)); 5 of 6 (dose: 100.0 mg/kg/injection, schedule: Q04DX003 (ip), vehicle: saline with Tween-80); 1 of 4 (dose: 200.0 mg/kg/injection, schedule: Q01DX001 (ip), vehicle: saline); 0 of 6 (dose: 200.0 mg/kg/injection, schedule: Q04DX003 (ip), vehicle: Klucel (hydroxypropylcellulose) (HPC)). In addition, the survivor count under setting [1] is reported as 0 of 4.

For the molecule `COC(=O)N1C=CC2C=CC1C(C#N)(C#N)C2(C#N)C#N` (centres undefined), the survivor count by setting is: (dose: 100.0 mg/kg/injection, schedule: Q04DX002 (ip), vehicle: Klucel (hydroxypropylcellulose) (HPC)) 0 of 3; (dose: 200.0 mg/kg/injection, schedule: Q04DX002 (ip), vehicle: Klucel (hydroxypropylcellulose) (HPC)) 0 of 3; (dose: 400.0 mg/kg/injection, schedule: Q04DX002 (ip), vehicle: Klucel (hydroxypropylcellulose) (HPC)) 0 of 3.

As to `CNC(=O)Oc1c(C)occc1=O`, the T/C (dose: 300.0 mg/kg/injection, schedule: Q01DX009 (ip), vehicle: other) was 138 % of control. In addition, under “dose: 450.0 mg/kg/injection, schedule: Q01DX009 (ip), vehicle: other”, the survivor count is 1 of 6.

Take `O=c1[nH]c(=O)c2ccccc2o1`: the survivor count (dose: 200.0 mg/kg/injection, schedule: Q01DX009 (ip), vehicle: saline with Tween-80) is 2 of 6 and the survivor count under setting [8] is on record as 0 of 6.

For `CCOC(=O)C(C)F` (centres undefined), the survivor count (dose: 400.0 mg/kg/injection, schedule: Q01DX001 (ip), vehicle: carboxymethylcellulose (CMC)) was 1 of 4.

For `O=C1c2ccccc2C(=O)c2c(O)c(N3CCOCC3)cc(O)c21`, the survivor count is given as 6 of 6 (dose: 25.0 mg/kg/injection, schedule: Q04DX003 (ip), vehicle: saline); 6 of 6 (dose: 50.0 mg/kg/injection, schedule: Q04DX003 (ip), vehicle: saline); 6 of 6 under setting [2]; 6 of 6 under setting [3].

As for `CCCCCCC(C)OC(=O)CCCc1ccc(N(CCCl)CCCl)cc1` (centres undefined), the T/C (dose: 100.0 mg/kg/injection, schedule: Q01DX009 (ip), vehicle: saline) is 135 % of control. Further, the survivor count under setting [6] is 6 of 6.

Consider `COC(=O)C1CCC(NC(=O)N(CCCl)N=O)CC1` (centres undefined), for which the T/C (dose: 67.0 mg/kg/injection, schedule: Q01DX001 (ip), vehicle: Klucel (hydroxypropylcellulose) (HPC)) is 137 % of control [9 of 10 alive]. Moreover, the survivor count reads like this: (dose: 100.0 mg/kg/injection, schedule: Q01DX001 (ip), vehicle: Klucel (hydroxypropylcellulose) (HPC)) 10 of 10; (dose: 150.0 mg/kg/injection, schedule: Q01DX001 (ip), vehicle: Klucel (hydroxypropylcellulose) (HPC)) 9 of 10 and 10 of 10; (dose: 225.0 mg/kg/injection, schedule: Q01DX001 (ip), vehicle: Klucel (hydroxypropylcellulose) (HPC)) 3 of 10 and 10 of 10; (dose: 335.0 mg/kg/injection, schedule: Q01DX001 (ip), vehicle: Klucel (hydroxypropylcellulose) (HPC)) 0 of 10 and 1 of 10.

For `S=c1[nH]c2c(Cl)c(Cl)c(Cl)c(Cl)c2[nH]1`, under setting [8], the survivor count is reported as 1 of 6.

In the case of `CNNP1(=O)OCC(C)([N+](=O)[O-])CO1` (centres undefined), under setting [1], the survivor count was 2 of 4.
